Test results from patent publication US6399568B1 (Japan Energy Corporation, priority 1997, dated 2002).

Columns and labels:
[1] = general procedure: peptide synthesis; oxime resin (OxR); DCC/HOBt; HATU (cyclisation, double coupling); BOP
[2] = Boc solid-phase peptide synthesis; oxime resin; DCC/HOBt; HATU (cyclisation, double coupling); BOP; details: whole synthesis

| Substance | step yield ([1]; coupling step) | step yield ([1]; late stage modification step) | also measured |
| --- | --- | --- | --- |
| Boc-Asu(OBzl)-Phe-Phe-D-Pro-OtBu | 80% | – | – |
| cyclo(-L-Asu(NHOH)-D-Phe-L-Phe-L-Pro-) | – | 10% | – |
| cyclo(-L-Lys(BrAc)-L-Phe-L-Phe-D-Pro-) | – | 62% | – |
| Boc-L-Asu(OBzl)-L-Lys(Z)-L-Phe-D-Pro-OtBu | 72% | – | – |
| cyclo(-Asu(OH)-Phe-Phe-D-Pro-) | – | 91% | – |
| Boc-D-Tyr(Me)-L-Ile-D-Pro-L-Glu(Gly-OBzl)-OAll | 79% | – | – |
| cyclo(-L-Asu(NHOH)-D-Tyr(Me)-L-Ile-L-Pro-) | – | – | isolated yield [2]: 50% |
| cyclo(-Asu(OBzl)-Phe-Phe-D-Pro-) | – | – | cyclisation yield ([1]; cyclisation step): 84% |
| H-L-Ile-L-Pro-L-Asu(OBzl)-D-Tyr(Me)-OH TFA | – | 90% | – |
| Boc-L-Ala-D-Ala-Asu(OBzl)-D-Pro-OtBu | 69% | – | – |
| cyclo(-L-Asu(OBzl)-D-Phe-L-Phe-L-Pro-) | – | – | crude yield [2]: 38% |
| cyclo(-L-ASu-L-LyS(Boc)-L-Phe-D-Pro-) | – | 74% | – |
| H-Asu(OBzl)-Phe-Phe-D-Pro-OH.TFA | – | 90% | – |
